Results are given in words; binding and its absence hold for the method and conditions named. In cells and extracts the contact can be indirect. For some assays here: Binding can be weak; no strength is given.
B1: Mex67 (protein, UniProt Q99257 1-599)
chain: MSGFHNVGNINMMAQQQMQQNRIKISVRNWQNATMNDLINFISRNARVAVYDAHVEGPLVIGYVNSKAEAESLMKWNGVRFAGSNLKFELLDNNGASAGTSDTISFLRGVLLKRYDPQTKLLNLGALHSDPELIQKGVFSSISTQSKMFPAMMKLASTEKSLIVESVNLADNQLKDISAISTLAQTFPNLKNLCLANNQIFRFRSLEVWKNKFKDLRELLMTNNPITTDKLYRTEMLRLFPKLVVLDNVIVRDEQKLQTVYSLPMKIQQFFFENDALGQSSTDFATNFLNLWDNNREQLLNLYSPQSQFSVSVDSTIPPSTVTDSDQTPAFGYYMSSSRNISKVSSEKSIQQRLSIGQESINSIFKTLPKTKHHLQEQPNEYSMETISYPQINGFVITLHGFFEETGKPELESNKKTGKNNYQKNRRYNHGYNSTSNNKLSKKSFDRTWVIVPMNNSVIIASDLLTVRAYSTGAWKTASIAIAQPPQQQASVLPQVASMNPNITTPPQPQPSVVPGGMSIPGAPQGAMVMAPTLQLPPDVQSRLNPVQLELLNKLHLETKLNAEYTFMLAEQSNWNYEVAIKGFQSSMNGIPREAFVQF
B2: Nab2 (protein, UniProt P32505 1-525)
chain: MSQEQYTENLKVIVAEKLAGIPNFNEDIKYVAEYIVLLIVNGGTVESVVDELASLFDSVSRDTLANVVQTAFFALEALQQGESAENIVSKIRMMNAQSLGQSDIAQQQQQQQQQQQPDIAQQQPQQQPQQQPQQQPQQQPQQQPQQQPQQQPQQQPQLQPLQPQLGTQNAMQTDAPATPSPISAFSGVVNAAAPPQFAPVDNSQRFTQRGGGAVGKNRRGGRGGNRGGRNNNSTRFNPLAKALGMAGESNMNFTPTKKEGRCRLFPHCPLGRSCPHAHPTKVCNEYPNCPKPPGTCEFLHPNEDEELMKEMERTREEFQKRKADLLAAKRKPVQTGIVLCKFGALCSNPSCPFGHPTPANEDAKVIDLMWCDKNLTCDNPECRKAHSSLSKIKEVKPISQKKAAPPPVEKSLEQCKFGTHCTNKRCKYRHARSHIMCREGANCTRIDCLFGHPINEDCRFGVNCKNIYCLFRHPPGRVLPEKKGAAPNSNVPTNERPFALPENAIIENAPPQTSFTHQEQDTEMN
B3: Nab2-VN (protein, UniProt P32505 1-525)
chain: B2 chain

By UniProt entry, the sequences of proteins in these tests, tags left out. Where a name states a change or a piece, a line headed by the entry shows the natural chain unless it says otherwise.
UniProt P20449: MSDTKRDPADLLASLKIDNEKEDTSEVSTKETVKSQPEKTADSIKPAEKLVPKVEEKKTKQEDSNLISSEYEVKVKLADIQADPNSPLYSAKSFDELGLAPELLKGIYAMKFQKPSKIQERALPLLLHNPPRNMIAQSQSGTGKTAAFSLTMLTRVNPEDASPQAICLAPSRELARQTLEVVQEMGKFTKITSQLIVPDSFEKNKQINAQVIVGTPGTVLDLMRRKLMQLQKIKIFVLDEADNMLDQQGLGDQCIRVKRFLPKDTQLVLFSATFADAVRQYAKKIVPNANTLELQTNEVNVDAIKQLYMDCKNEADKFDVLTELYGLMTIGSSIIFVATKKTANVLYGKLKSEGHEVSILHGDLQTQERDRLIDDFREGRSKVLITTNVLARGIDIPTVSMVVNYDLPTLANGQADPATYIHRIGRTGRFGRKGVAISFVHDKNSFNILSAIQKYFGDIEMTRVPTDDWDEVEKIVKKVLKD
UniProt P04147: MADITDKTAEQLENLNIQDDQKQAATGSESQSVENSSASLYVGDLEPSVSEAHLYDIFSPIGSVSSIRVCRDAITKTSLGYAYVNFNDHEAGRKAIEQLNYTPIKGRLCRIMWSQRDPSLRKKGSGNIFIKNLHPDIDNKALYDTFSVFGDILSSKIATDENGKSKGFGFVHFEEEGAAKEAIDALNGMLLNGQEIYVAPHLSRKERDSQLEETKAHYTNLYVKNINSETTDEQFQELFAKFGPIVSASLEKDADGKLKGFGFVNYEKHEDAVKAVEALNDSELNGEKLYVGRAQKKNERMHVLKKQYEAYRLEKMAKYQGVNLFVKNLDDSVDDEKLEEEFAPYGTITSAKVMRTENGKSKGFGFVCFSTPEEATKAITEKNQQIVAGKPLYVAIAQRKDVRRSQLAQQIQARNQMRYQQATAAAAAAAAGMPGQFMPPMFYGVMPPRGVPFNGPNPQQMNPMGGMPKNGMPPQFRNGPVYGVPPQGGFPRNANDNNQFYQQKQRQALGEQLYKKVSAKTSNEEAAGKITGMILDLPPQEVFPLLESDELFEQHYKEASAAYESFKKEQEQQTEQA
UniProt P34160: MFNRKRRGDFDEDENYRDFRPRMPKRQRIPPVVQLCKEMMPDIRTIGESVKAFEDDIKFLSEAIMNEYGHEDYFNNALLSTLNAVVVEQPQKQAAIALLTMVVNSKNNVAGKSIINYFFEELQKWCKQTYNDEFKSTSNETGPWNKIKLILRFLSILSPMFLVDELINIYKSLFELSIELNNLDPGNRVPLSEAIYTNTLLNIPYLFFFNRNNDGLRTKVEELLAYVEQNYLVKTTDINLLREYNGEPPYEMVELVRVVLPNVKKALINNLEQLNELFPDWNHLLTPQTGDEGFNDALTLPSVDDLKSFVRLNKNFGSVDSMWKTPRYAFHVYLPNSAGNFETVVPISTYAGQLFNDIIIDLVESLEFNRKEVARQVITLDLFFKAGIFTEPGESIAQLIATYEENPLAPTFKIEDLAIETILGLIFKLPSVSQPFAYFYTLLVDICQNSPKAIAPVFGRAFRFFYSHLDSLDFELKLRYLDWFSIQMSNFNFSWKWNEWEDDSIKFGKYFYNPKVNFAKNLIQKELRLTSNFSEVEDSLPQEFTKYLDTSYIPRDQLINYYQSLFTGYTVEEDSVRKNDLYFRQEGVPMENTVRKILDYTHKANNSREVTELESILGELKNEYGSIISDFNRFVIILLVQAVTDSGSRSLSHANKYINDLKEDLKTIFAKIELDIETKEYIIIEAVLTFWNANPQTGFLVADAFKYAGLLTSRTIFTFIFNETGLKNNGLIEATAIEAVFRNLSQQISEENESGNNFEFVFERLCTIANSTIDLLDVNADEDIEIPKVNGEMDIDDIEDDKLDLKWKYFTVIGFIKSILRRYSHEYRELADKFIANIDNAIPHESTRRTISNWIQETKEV

Experiments:
Dbp5-VC (S. cerevisiae) [1] = target: Dbp5-VC (S. cerevisiae) (UniProt P20449); experiment: split reporter; split Venus (VN and VC at the C-termini), heterozygous diploid yeast, mid-log phase at 23°C, wide-field live-cell fluorescence; reciprocal tagging confirmed the observed association; Dbp5-VC Nab2-VN signal not reduced in many cells after 30 min thiolutin
[2] = target: GFP-dbp5^R369G (S. cerevisiae) (UniProt P20449); experiment: co-IP; GFP-tagged Dbp5 immunoprecipitated with polyclonal rabbit anti-GFP and Protein A sepharose from yeast lysate treated with water; 25 mM HEPES pH 7.4, 150 mM KCl, 2 mM MgCl2, 0.1% NP-40; eluates immunoblotted
GFP-Dbp5 (S. cerevisiae) [3] = target: GFP-Dbp5 (S. cerevisiae) (UniProt P20449); experiment: as above
GFP-Dbp5 (S. cerevisiae) [4] = target: GFP-Dbp5 (S. cerevisiae) (UniProt P20449); experiment: condition: only lysate treated with 0.5ug/uL RNase A; co-IP; as the co-IP without RNase, but lysate treated with 0.5ug/uL RNase A for 10 min before immunoprecipitation with anti-GFP
[5] = target: GFP-dbp5^R369G (S. cerevisiae) (UniProt P20449); experiment: as above
Dbp5-VC (S. cerevisiae) [6] = target: Dbp5-VC (S. cerevisiae) (UniProt P20449); experiment: condition: only after a shift to 42°C for 10 minutes (heat shock); split reporter; split Venus, heterozygous diploid yeast grown at 23°C and shifted to 42°C for 10 min (heat shock), wide-field live-cell fluorescence

Molecule	binding (Dbp5-VC (S. cerevisiae) [1])	binding [2]	binding (GFP-Dbp5 (S. cerevisiae) [3])	binding (GFP-Dbp5 (S. cerevisiae) [4])	binding [5]	binding (Dbp5-VC (S. cerevisiae) [6])
Pab1-VN (from UniProt P04147 1-577)	no binding	–	–	–	–	–
Cbp80 (from UniProt P34160 1-861)	–	no binding	–	–	–	–
Pab1 (from UniProt P04147 1-577)	–	no binding	no binding	–	–	–
B1	–	binds	binds	no binding	no binding	–
B2	–	binds	binds	no binding	no binding	–
B3	binds	–	–	–	–	no binding

Reference: article PMC7553267
